# Taken from: PubChem BioAssay AID1259254 (NCATS, 2017)
# Screen: 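Gene knock-downs that lead to re-replication, shown by excess G2 DNA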 (primary screen)
# System: human HCT116 colorectal cancer cells
# Reagent: single siRNA against human genes
# Time to read-out: 3 days
# Read-out: 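Nuclei stained with Hoechst and imaged; cell-cycle phase assigned by DNA content; G2 share scaled per plate, non-targeting siRNA 0%, GMNN siRNA 100%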
# Reading the numbers: G2 robust z-score and G2 cells, % of GMNN control: higher = more G2 cells, more excess DNA replication; raw share of cells in G2: higher = larger share of cells with G2 DNA content
# Call rule: 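An siRNA counts as active if its G2 robust z-score lies at least 5 MADs above the screen median; here such calls match roughly 38% of GMNN control or more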
# Here is an unselected part of about 59,000 deposited reagents. In the full data, about 1,550 (2.6%) were called active. 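G2 share is only a proxy for re-replication; each gene was hit by three separate siRNAs, and active genes were retested.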 The raw values are shown without normalisation. Entries without a mark were called inactive. The numbers tell different reagents against one gene apart. The record does not give: the amount of reagent.
target gene,reagent,G2 robust z-score,"G2 cells, % of GMNN control",raw share of cells in G2 (%)
HDHD2,1,-0.38,0.296,4.21
HDHD2,2,0.236,4.63,4.83
HDHD2,3,-0.706,-2,1.8
CPSF6,1,2.08,17.6,13.4
CPSF6,2,-0.21,1.49,4.38
CPSF6,3,-0.376,0.324,4.26
SP8,1,0.911,9.37,6.32
SP8,2,3.15,25.2,11.9
SP8,3,0.602,7.21,6.05
CBLC,1,0.0672,3.44,7.72
CBLC,2,-0.0251,2.79,5.11
CBLC,3,-0.324,0.685,4.21
CDC25C,1,0.295,5.04,6.44
CDC25C,2,0.264,4.83,5.76
CDC25C,3,-0.762,-2.39,2.78
DPYSL2,1,0.523,6.65,6.39
DPYSL2,2,-0.0813,2.4,5.82
DPYSL2,3,-0.00344,2.94,6.07
PRR23B,1,-0.781,-2.53,3.55
PRR23B,2,1.79,15.6,9.11
PRR23B,3,0.885,9.19,7.4
GIMAP4,1,1.94,16.7,10.9
GIMAP4,2,2.96,23.8,14
GIMAP4,3,-0.758,-2.37,2.38
P2RY13,1,-1.01,-4.15,2
P2RY13,2,-0.852,-3.02,4.76
P2RY13,3,-0.323,0.698,4.76
MERTK,1,5.16 (active),39.3,17.8
MERTK,2,0.44,6.06,7.4
MERTK,3,0.0478,3.3,4.74
MS4A4E,1,0.714,7.99,6.68
MS4A4E,2,2.54,20.8,10.8
MS4A4E,3,-0.136,2.01,3.73
CNNM2,1,-0.694,-1.92,2.92
CNNM2,2,5.48 (active),41.5,21.7
CNNM2,3,-0.5,-0.548,3.01
GLIPR2,1,2.87,23.2,11.6
GLIPR2,2,-0.568,-1.03,2.6
GLIPR2,3,-0.791,-2.6,2.16
SNX30,1,0.469,6.27,5.25
SNX30,2,1.21,11.5,7.14
SNX30,3,-0.494,-0.508,3.35
SF3B4,1,3.32,26.3,12.3
SF3B4,2,-1.53,-7.81,3.4
SF3B4,3,1.38,12.7,11.2
BBX,1,3.68,28.9,19.1
BBX,2,-0.829,-2.86,3.41
BBX,3,0.553,6.86,7.19
DEFA4,1,-0.0934,2.31,4.43
DEFA4,2,0.703,7.91,9.01
DEFA4,3,0.156,4.07,5.58
TADA2B,1,0.992,9.95,8.24
TADA2B,2,-0.507,-0.597,5.39
TADA2B,3,-0.516,-0.665,4.68
TIMELESS,1,6.11 (active),46,25.5
TIMELESS,2,1.77,15.5,10
TIMELESS,3,-0.887,-3.27,2.19
PNMA8A,1,0.487,6.4,6.98
PNMA8A,2,-0.609,-1.32,3.59
PNMA8A,3,-0.0674,2.49,3.93
GNG4,1,-0.0568,2.57,6.17
GNG4,2,1.98,16.9,11.7
GNG4,3,-0.474,-0.365,3.53
NHERF1,1,-0.468,-0.325,4.37
NHERF1,2,-0.157,1.86,6.38
NHERF1,3,-0.932,-3.59,2.92
ADSS1,1,1.31,12.2,11.3
ADSS1,2,1.3,12.1,10.2
ADSS1,3,-0.016,2.85,5.56

Reagents above marked active (3):
target gene,reagent,G2 robust z-score,"G2 cells, % of GMNN control",raw share of cells in G2 (%)
MERTK,1,5.16 (active),39.3,17.8
CNNM2,2,5.48 (active),41.5,21.7
TIMELESS,1,6.11 (active),46,25.5
